Data on 1 molecule can be found in publication PMC11734925.

These are yes or no findings as the source states them, for the method shown. Binding seen in cells or lysates may run through a third protein. Where a sequence is shown, tags or fusion partners need not be part of it.

The target in this assay is T1, GFP-Piwi (D. melanogaster) (UniProt Q9VKM1).
T1 sequence: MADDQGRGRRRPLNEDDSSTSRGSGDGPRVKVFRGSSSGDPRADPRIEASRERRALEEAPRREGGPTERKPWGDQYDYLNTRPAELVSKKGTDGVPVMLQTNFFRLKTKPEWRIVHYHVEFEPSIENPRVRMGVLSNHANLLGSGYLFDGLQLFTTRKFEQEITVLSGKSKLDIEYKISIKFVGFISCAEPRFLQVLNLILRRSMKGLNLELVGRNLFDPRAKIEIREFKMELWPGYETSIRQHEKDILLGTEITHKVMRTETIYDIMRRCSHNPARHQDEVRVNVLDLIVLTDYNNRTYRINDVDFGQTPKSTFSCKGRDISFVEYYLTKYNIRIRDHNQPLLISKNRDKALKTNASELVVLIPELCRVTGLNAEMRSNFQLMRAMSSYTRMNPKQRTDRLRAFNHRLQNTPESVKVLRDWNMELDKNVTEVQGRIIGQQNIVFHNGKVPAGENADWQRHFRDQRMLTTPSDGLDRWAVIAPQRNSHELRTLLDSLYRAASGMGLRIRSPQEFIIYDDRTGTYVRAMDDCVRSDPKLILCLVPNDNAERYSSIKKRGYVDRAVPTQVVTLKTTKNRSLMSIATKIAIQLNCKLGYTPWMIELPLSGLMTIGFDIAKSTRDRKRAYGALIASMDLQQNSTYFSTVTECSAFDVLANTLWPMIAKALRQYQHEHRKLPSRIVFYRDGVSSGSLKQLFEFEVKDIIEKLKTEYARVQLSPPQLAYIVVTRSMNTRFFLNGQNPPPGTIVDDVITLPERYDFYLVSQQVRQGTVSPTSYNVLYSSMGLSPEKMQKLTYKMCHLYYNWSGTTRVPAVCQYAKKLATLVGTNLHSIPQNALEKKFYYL
Briefly: co-IP; GFP-Piwi precipitated with anti-GFP nanobody beads from embryo lysate (about 970 μg at 2 mg/ml), 90 min at 4°C; washes with 450 mM NaCl; blot with anti-GFP and anti-D1; NLS-GFP embryos as control.

B1: D1 (protein, UniProt P22058 1-355)
chain: MEEVAVKKRGRPSKASVGGKSSTAAVAAISPGIKKRGRPAKNKGSSGGGGQRGRPPKASKIQNDEDPEDEGEEDGDGDGSGAELANNSSPSPTKGRGRPKSSGGAGSGSGDSVKTPGSAKKRKAGRPKKHQPSDSENEDDQDEDDDGNSSIEERRPVGRPSAGSVNLNISRTGRGLGRPKKRAVESNGDGEPQVPKKRGRPPQNKSGSGGSTGYVPTGRPRGRPKANAAPVEKHEDNDDDQDDENSGEEEHSSPEKTVVAPKKRGRPSLAAGKVSKEETTKPRSRPAKNIDDDADDADSADQGQHNSKKESNDEDRAVDGTPTKGDGLKWNSDGENDANDGYVSDNYNDSESVAA
In the case of B1, the binding entry was “no binding”.
